Experimental data reported in PubChem BioAssay AID1671190 (National Center for Advancing Translational Sciences (NCATS), 2021).
Screen size: about 580,000 compounds; about 6,100 (1.1%) were called active. The inconclusive results got no clear call from the source; some entries with a clear call stand among them for comparison. The call rests on the fitted dose curve; in most records, active means well fitted inhibition curve with a large enough effect; inconclusive means small, poorly fitted or top-dose-only effect, or another doubt; inactive means no such curve, though single readings can be large or run the other way. Potencies beside an inconclusive call are fits to weak or partial responses and may not hold up.
Potency means the concentration at half of the fitted maximal effect.

By UniProt entry, the sequences of proteins in these tests, tags left out. Where a name states a change or a piece, a line headed by the entry shows the natural chain unless it says otherwise.
UniProt P18054: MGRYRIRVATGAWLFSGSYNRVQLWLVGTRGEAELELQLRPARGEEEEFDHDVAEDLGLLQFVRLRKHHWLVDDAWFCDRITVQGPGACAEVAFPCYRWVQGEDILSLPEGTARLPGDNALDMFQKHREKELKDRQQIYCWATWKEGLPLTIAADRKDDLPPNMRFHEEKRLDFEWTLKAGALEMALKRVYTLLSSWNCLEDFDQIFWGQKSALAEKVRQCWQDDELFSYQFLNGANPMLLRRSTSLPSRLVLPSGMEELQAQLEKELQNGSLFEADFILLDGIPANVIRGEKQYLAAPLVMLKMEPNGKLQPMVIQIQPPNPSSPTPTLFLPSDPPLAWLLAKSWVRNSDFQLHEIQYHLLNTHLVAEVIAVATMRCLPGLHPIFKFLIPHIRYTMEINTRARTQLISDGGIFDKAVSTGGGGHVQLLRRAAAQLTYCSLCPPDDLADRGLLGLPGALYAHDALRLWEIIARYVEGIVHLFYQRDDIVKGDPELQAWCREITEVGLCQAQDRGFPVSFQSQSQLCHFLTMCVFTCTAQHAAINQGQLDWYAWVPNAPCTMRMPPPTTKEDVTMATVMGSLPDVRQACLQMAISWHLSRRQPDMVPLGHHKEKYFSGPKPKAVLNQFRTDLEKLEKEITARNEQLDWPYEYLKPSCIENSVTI

The molecules below were run against Polyunsaturated fatty acid lipoxygenase ALOX12 (Homo sapiens) (UniProt P18054) (assay: Primary qHTS assay for inhibitors of human arachidonate 12S-lipoxygenase (ALOX12): Round 2). Conditions: purified 12hLO, xylenol orange hydroperoxide absorbance; series mostly up to 108 µM.
Procedure, shortened: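 Purified human 12hLO (150 nM final) in 25 mM Hepes, 0.01% Triton X-100, pH 7.0 was preincubated 15 min at room temperature with compound. Then 40 uM arachidonic acid was added, 30 min. Hydroperoxide was read by Fe-XO absorbance ratio 573/405 nm.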
For CCC(=O)Nc1ccc(-c2c(-c3ccc(F)cc3)nn(-c3ccc(F)cc3)c2OC(C)=O)cc1, the Potency was inconclusive: 17.8 µM [inhibitor, full curve, poor fit]. With COc1ccc(CN2C(=O)C(n3ccc4ccccc43)c3cc(OC(F)(F)F)ccc32)cc1 (stereo unspecified) the Potency was active: 39.8 µM. With CC(C)NC(=O)N1CCC2(CC1)CC(C(=O)N1CCOCC1)N(C)C2 (stereo unspecified) the Potency was “inactive”. CCOc1ccc(S(=O)(=O)N(CC(=O)Nc2cccc(C)c2)c2ccccc2)cc1 was tested, and the Potency was inconclusive: 100 µM [inhibitor, single point]. For Cc1ccccc1-c1cnc2n[nH]c(-c3ccc4c(c3)OCO4)c2n1, the Potency was inconclusive: 22.4 µM [inhibitor, partial curve, poor fit]. With Cc1cnc(C(=O)OCC(=O)Nc2ccc(C)c(S(=O)(=O)N(C)C)c2)cn1 the Potency was inconclusive: 5.62 µM [inhibitor, full curve, poor fit]. In the case of CCOC(=O)c1cn(C)nc1S(=O)(=O)N1CCOCC1, the Potency is reported as active: 11.2 µM. With COc1ccc(CCNC(=O)c2ccc3c(c2)NC(=O)CS3)cc1OC the Potency was inconclusive: 2.24 µM [inhibitor, full curve, poor fit]. CC(=O)N1CCN(C(=O)CCc2nc3sc4c(c3c(=O)[nH]2)CCCC4)CC1 was tested, and the Potency was “inactive”. CCN1CCN(CCNC(=O)c2ccc3c(c2)N(Cc2ccc(F)cc2)C(=O)c2ccccc2S3=O)CC1 (stereo unspecified) was tested, and the Potency was inconclusive: 112 µM [inhibitor, single point]. Cc1nc2nc(C)n(CCN3CCOCC3)c(=O)c2c(-c2cccc([N+](=O)[O-])c2)c1C(=O)CCCCCCCCCCN1CCC(c2ccccc2)(c2ccccc2)CC1 was tested, and the Potency was inconclusive: 63.1 µM [inhibitor, partial curve, poor fit]. For CN(c1ccccc1)S(=O)(=O)c1ccc(NC(=O)c2nc(S(C)(=O)=O)ncc2Cl)cc1, the Potency was inconclusive: 0.316 µM [inhibitor, full curve, poor fit]. In the case of CCn1c(SCC(=O)c2ccc(O)c(O)c2)nnc1-c1ccccc1OC, the Potency is reported as inconclusive: 5.01 µM [inhibitor, full curve, poor fit]. With COc1ccc(C(=O)N2CCC[C@@]3(CCN(c4cccc(-c5ccccc5)c4)C3)C2)cc1 the Potency was “inactive”. In the case of c1ccc(Nc2ccc(-n3cccc3)cc2)cc1, the Potency is reported as inconclusive: 39.8 µM [inhibitor, partial curve, poor fit]. In the case of C[C@@H]1CN([C@@H](C)CO)C(=O)CCCn2nncc2CO[C@H]1CN(C)S(=O)(=O)c1cccc(F)c1, the Potency is reported as inconclusive: 100 µM [inhibitor, partial curve, poor fit].
